Assay results reported in publication doi:10.1101/2021.10.12.464076.
No constants are given. Whether binding was seen depends on the method and setting. In cells and extracts the contact can be indirect. Here binding means that the protein was enriched with, or labelled near, the bait; the list need not be complete.

Protein sequences, listed by entry. Tags and fused reporters are not part of them.
UniProt Q8IY92: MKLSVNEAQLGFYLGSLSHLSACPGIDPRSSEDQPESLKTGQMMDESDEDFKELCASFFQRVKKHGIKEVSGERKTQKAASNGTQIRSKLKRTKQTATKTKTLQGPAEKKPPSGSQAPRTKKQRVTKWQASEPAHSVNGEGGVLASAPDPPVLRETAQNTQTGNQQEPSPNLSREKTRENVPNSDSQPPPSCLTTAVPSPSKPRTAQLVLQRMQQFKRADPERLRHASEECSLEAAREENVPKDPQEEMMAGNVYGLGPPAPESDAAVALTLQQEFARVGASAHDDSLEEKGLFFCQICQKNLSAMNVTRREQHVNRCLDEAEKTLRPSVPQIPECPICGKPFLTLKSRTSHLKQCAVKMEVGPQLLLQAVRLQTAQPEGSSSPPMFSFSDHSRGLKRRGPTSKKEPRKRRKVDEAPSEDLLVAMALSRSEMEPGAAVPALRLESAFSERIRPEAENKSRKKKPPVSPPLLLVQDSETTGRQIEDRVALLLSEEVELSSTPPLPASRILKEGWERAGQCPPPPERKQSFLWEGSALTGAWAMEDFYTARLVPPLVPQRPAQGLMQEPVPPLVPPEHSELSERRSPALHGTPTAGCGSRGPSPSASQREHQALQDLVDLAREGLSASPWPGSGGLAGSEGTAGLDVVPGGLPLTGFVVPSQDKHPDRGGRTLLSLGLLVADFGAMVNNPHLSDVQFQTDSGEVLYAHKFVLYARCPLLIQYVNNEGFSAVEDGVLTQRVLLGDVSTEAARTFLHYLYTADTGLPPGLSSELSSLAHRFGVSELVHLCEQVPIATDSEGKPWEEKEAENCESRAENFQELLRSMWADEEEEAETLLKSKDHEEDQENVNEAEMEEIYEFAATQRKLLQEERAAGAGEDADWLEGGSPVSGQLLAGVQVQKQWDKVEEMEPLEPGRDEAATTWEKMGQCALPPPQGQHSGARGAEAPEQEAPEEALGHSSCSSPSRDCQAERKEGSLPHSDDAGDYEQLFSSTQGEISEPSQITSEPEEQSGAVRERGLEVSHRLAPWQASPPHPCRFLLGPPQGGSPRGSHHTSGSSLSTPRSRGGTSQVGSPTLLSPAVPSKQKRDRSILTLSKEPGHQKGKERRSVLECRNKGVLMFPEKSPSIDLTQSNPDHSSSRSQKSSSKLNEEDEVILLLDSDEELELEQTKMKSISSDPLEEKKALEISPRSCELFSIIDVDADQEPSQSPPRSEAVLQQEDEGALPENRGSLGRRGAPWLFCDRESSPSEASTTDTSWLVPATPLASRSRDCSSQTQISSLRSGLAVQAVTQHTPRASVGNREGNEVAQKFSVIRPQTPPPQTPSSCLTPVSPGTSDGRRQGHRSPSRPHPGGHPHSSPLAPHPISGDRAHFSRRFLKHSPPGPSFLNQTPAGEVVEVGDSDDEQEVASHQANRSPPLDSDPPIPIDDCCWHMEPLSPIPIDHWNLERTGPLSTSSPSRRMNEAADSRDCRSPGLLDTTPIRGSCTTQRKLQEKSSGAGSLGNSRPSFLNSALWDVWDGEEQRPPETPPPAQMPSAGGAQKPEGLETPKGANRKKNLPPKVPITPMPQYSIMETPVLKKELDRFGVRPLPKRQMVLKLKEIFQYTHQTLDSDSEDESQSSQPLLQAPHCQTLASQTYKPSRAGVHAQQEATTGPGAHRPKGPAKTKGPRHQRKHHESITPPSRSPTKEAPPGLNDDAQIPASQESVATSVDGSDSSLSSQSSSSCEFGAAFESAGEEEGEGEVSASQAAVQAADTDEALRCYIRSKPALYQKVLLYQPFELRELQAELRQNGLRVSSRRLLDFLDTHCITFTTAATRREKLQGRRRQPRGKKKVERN
UniProt P52701: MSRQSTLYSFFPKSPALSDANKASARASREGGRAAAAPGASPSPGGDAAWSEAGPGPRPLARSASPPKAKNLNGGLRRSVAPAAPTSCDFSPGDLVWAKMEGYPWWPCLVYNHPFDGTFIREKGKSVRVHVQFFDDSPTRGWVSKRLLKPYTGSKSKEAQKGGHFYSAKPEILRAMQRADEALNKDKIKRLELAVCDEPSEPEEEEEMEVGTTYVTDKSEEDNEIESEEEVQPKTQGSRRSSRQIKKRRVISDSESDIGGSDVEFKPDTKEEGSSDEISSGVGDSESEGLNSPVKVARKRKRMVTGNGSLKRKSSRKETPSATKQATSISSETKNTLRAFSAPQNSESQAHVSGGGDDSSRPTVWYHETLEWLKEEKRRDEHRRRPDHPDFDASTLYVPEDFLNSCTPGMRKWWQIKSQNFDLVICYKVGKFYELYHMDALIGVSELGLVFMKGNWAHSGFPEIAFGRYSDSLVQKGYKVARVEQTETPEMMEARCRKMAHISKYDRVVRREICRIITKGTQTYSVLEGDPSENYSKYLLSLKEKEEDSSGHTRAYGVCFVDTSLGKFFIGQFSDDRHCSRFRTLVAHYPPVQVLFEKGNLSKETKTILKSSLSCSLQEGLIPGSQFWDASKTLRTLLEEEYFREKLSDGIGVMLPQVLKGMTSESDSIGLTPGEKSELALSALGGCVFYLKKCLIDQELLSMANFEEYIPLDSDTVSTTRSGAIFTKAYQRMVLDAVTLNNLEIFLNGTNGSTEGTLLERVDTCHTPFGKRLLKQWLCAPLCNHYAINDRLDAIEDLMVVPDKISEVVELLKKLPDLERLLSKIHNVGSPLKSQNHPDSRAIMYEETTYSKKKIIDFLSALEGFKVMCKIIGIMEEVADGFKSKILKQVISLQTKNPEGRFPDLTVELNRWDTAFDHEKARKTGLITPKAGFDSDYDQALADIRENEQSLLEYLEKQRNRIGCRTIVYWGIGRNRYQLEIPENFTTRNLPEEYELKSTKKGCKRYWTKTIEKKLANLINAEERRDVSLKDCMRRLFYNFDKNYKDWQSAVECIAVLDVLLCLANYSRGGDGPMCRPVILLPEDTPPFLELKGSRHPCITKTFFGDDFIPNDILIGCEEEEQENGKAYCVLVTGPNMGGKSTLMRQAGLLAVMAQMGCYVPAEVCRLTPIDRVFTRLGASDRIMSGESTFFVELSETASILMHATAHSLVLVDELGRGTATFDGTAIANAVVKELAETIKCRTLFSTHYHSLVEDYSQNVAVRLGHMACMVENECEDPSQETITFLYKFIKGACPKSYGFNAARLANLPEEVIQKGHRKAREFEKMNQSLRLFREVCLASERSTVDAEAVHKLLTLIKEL

Target: endogenous SLX4 (human (endogenous in HeLa)) (UniProt Q8IY92)
Assay: affinity purification with mass spectrometry

binding: binds
Substance: endogenous MSH6 (from UniProt P52701 1-1360)
